Structures can show the parent of a compound that is named as a salt. ± gives the standard deviation of the averaged measurements. The list shows a part of the results. The data scatter; read single values as rough.

This test relates to hAMSC donor 1. The experiment in a line: transgenic luciferase activity (RLU/mg protein) fold change vs vehicle control (ratio); hAMSC are human adipose-derived mesenchymal stem cells given an EGFP-luciferase plasmid by lipofection; higher = more transgene expression. Conditions: priming compound concentration 0.2 µM.
Take `C[C@](N)(Cc1ccc(O)cc1)C(=O)O` [alpha-Methyl-L-tyrosine]: the transgenic luciferase activity came to 2.11 ± 0.31.

With `COCCOC(=O)C1=C(C)NC(C)=C(C(=O)OC(C)C)C1c1cccc([N+](=O)[O-])c1` (configuration not stated) [Nimodipine], the transgenic luciferase activity worked out at 2.03 ± 1. For `CN1[C@@H](CC(=O)c2ccccc2)CCC[C@H]1C[C@H](O)c1ccccc1` [Lobeline hydrochloride], the transgenic luciferase activity worked out at 0.782 ± 0.28. In the case of `CN(C)CCCC1(c2ccc(F)cc2)OCc2cc(C#N)ccc21` (configuration not stated) [Citalopram hydrobromide] it was 1.16 ± 0.3; in that of `CN(C)CCc1c[nH]c2ccc(Cn3cncn3)cc12` [Rizatriptan benzoate], 0.756 ± 0.38.

For `Nc1ncn([C@@H]2O[C@H](CO)[C@@H](O)[C@H]2O)c(=O)n1` [5-Azacytidine], the transgenic luciferase activity was found to be 1.69 ± 0.95. Then `O=C(O)CCc1nc(-c2ccccc2)c(-c2ccccc2)o1` [Oxaprozin], with 1.17 ± 0.88; and `CN1CC(=O)N2[C@H](c3ccc4c(c3)OCO4)c3[nH]c4ccccc4c3C[C@@H]2C1=O` [Tadalafil], with 0.582 ± 0.13. Then `O=c1c(O[C@@H]2O[C@H](CO)[C@@H](O)[C@H](O)[C@H]2O)c(-c2ccc(O)c(O)c2)oc2cc(O)cc(O)c12` [Isoquercitrin], with 2.32 ± 0.87; and `CN(C)[C@@H]1C(O)=C(C(N)=O)C(=O)[C@@]2(O)C(O)=C3C(=O)c4c(O)ccc(Cl)c4[C@@H](O)[C@H]3C[C@@H]12` [Demeclocycline], with 1.62 ± 0.86; and `OCCN1CCN(CCCN2c3ccccc3Sc3ccc(C(F)(F)F)cc32)CC1` [Fluphenazine dihydrochloride], with 0.789 ± 0.17. Regarding `CCN(CC)CCOc1ccc(C(=C(Cl)c2ccccc2)c2ccccc2)cc1` [Clomifene citrate], the transgenic luciferase activity came to 0.836 ± 0.24. In the case of `N#Cc1ccc(C(c2ccc(C#N)cc2)n2cncn2)cc1` [Letrozole] it was 0.613 ± 0.12; in that of `COc1cc([C@@H]2c3cc4c(cc3[C@@H](O[C@@H]3O[C@@H]5CO[C@@H](C)O[C@H]5[C@H](O)[C@H]3O)[C@H]3COC(=O)[C@H]23)OCO4)cc(OC)c1O` [Etoposide], 0.737 ± 0.42; in that of `C[C@]12C[C@H](O)[C@H]3[C@@H](CCC4=CC(=O)CC[C@@]43C)[C@@H]1CC[C@@H]2C(=O)CO` [Corticosterone], 0.734 ± 0.14.

`CCN1CCCC1CNC(=O)c1cc(S(=O)(=O)CC)c(N)cc1OC` (configuration not stated) [Amisulpride]: the transgenic luciferase activity came to 0.755 ± 0.34. Then `CC1=C(C/C=C(\C)CCC[C@H](C)CCC[C@H](C)CCCC(C)C)C(=O)c2ccccc2C1=O` [Phylloquinone], with 2.01 ± 1.2; and `C[C@H](CS)C(=O)N1CCC[C@H]1C(=O)O` [Captopril], with 1.6 ± 0.58. In the case of `c1ccc2c(CC3=NCCN3)cccc2c1` [Naphazoline hydrochloride] it was 1.38 ± 0.48; in that of `C[C@H]1O[C@@H](O[C@H]2[C@@H](O)C[C@H](O[C@H]3[C@@H](O)C[C@H](O[C@H]4CC[C@@]5(C)[C@H](CC[C@@H]6[C@@H]5C[C@@H](O)[C@]5(C)[C@@H](C7=CC(=O)OC7)CC[C@]65O)C4)O[C@@H]3C)O[C@@H]2C)C[C@H](O)[C@@H]1O` [Digoxin], 3.21 ± 0.89; in that of `CC#C[C@]1(O)CC[C@H]2[C@@H]3CCC4=CC(=O)CCC4=C3[C@@H](c3ccc(N(C)C)cc3)C[C@@]21C`, 0.901 ± 0.061. As for `COc1ccccc1N1CCN(CC(O)COc2cccc3ccccc23)CC1` (configuration not stated) [Naftopidil], the transgenic luciferase activity came out at 0.571 ± 0.18. In the case of `CN1CCN(c2nc3cc(C(F)(F)F)ccc3n3cccc23)CC1` it was 0.929 ± 0.18; in that of `O=c1[nH]cc(F)c(=O)[nH]1` [5-Fluorouracil], 0.455 ± 1.9; in that of `CC1(C)S[C@@H]2[C@H](NC(=O)[C@H](N)c3ccc(O)cc3)C(=O)N2[C@H]1C(=O)O` [Amoxicillin], 2.15 ± 0.79. For the molecule `CN1CCC[C@H]1c1cccnc1` [Nicotine], the transgenic luciferase activity came out at 1.74 ± 0.32. On to `CC1(C)O[C@@H]2[C@@H](CO[C@@]3(COS(N)(=O)=O)OC(C)(C)O[C@@H]23)O1` [Topiramate], for which the transgenic luciferase activity was 1.34 ± 0.55. On to `Nc1ncnc2c1ncn2[C@@H]1O[C@H](CO)C[C@@H]1O` [3'-Deoxydenosine], for which the transgenic luciferase activity worked out at 1.68 ± 1. Then `O=C1c2c(O)cc(O)cc2O[C@H](c2ccc(O)c(O)c2)[C@H]1O` (racemic) [Taxifolin-(+/-)], with 1.8 ± 0.72; and `O=C(c1ccccc1)c1ccc2n1CCC2C(=O)O` (configuration not stated) [Ketorolac tromethamine], with 1.2 ± 0.48. Then `CC(=O)N[C@H]1[C@H]([C@H](O)[C@H](O)CO)OC(C(=O)O)=C[C@@H]1NC(=N)N` [Zanamivir hydrate], with 0.585 ± 0.53; and `CCOc1cc(CC(=O)N[C@@H](CC(C)C)c2ccccc2N2CCCCC2)ccc1C(=O)O` [Repaglinide], with 1.45 ± 0.65.

The values are drawn from the supplement of paper PMC7238544.
